These are yes or no findings as the source states them, for the method shown. Some results given as binding are weak or reduced against the parent protein; the word gives no strength. For some assays here: Where a sequence is shown, tags or fusion partners need not be part of it.
What was measured:
[1] = biological target: CD70-specific 4F11-QR3 chimeric antigen receptor (on CAR T cells or CAR Jurkat cells); assay: flow cytometry; PE-conjugated antibody titrated from 30 ug/mL on 4F11-QR3 CAR T cells
[2] = biological target: CD70-specific 4F11-QR3 chimeric antigen receptor (on CAR T cells or CAR Jurkat cells); assay: flow cytometry, PE-conjugated clone 37 on 4F11-QR3 CAR T cells; rows 1 and 2 are clone 37 by paragraph 61 and paragraph 211
[3] = biological target: CD70-specific 4F11-QR3 chimeric antigen receptor (on CAR T cells or CAR Jurkat cells); assay: flow cytometry, Clone 60-PE at 3 ug/mL on 4F11-QR3 CAR T cells
[4] = biological target: CD70-specific 4F11-QR3 chimeric antigen receptor (on CAR T cells or CAR Jurkat cells); assay: flow cytometry; 4F11-QR3 CAR cells pre-incubated with hCD70 at 100 ug/mL, then Clone 60-PE at 1.5 ug/mL
[5] = biological target: CD70-specific 4F11-QR3 chimeric antigen receptor (on CAR T cells or CAR Jurkat cells); assay: flow cytometry; 0.3 ug/mL PE-conjugated or unconjugated recombinant or hybridoma Clone 60 on 4F11-QR3 CAR T cells
[6] = biological target: CD70-specific 4F11-QR3 chimeric antigen receptor (on CAR T cells or CAR Jurkat cells); assay: flow cytometry, PE-conjugated clone 60 on 4F11-QR3 CAR T cells; rows 3 and 4 are clone 60 by paragraph 61 and paragraph 211
[7] = biological target: CD70-specific 4F11-QR3 chimeric antigen receptor (on CAR T cells or CAR Jurkat cells); assay: flow cytometry; 4F11-QR3 CAR Jurkat cells with or without pre-incubation with hCD70 at 100 ug/mL; hybridoma supernatant 1:10, anti-mouse Fc secondary
Biotin-hCD70 (human) [8] = biological target: T1, Biotin-hCD70 (human) (UniProt P32970); assay: SPR, premix of 4F11 scFv 10xHis and Bt-hCD70 over captured clone 60, then streptavidin as secondary detection of the biotinylated hCD70 in the complex
T1 sequence (biotinylated (site not stated), looked up): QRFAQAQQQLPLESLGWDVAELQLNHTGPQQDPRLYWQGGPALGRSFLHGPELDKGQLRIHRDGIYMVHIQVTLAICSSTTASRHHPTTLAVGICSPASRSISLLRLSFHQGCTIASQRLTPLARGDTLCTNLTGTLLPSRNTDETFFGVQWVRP

Biotin-hCD70 (human) [9] = biological target: T1, Biotin-hCD70 (human); assay: SPR simultaneous-binding assays; Biotin-hCD70 at 100 nM premixed with the scFv, or injected after it, on captured clone 60; streptavidin as secondary detection in the premix format
Biotin-hCD70 (human) [10] = biological target: T1, Biotin-hCD70 (human); assay: SPR classic sandwich, hCD70_100nM (Bt-hCD70) or buffer injected over 4F11 scFv 10xHis held by captured clone 60; the rising trace is taken as hCD70, because the legend lines cannot be told apart

Measured: binding

B1: anti-idiotype antibody Clone 37 (IDA2002-1.37) (antibody, V domains shown)
VH: EVKLEESGGGLVQPGGSMKLSCAASGFTFSDAWMDWVRQSPEKGLEWVAEIRNKANNHATYYAESVKGRFTISRDDSKYNVYLQMNSLRAEDTGIYYCARPLLRGNFDVWGAGTTVTVSS
VL: DIQMTQSSSYLSISLGGRVTITCKASDHINNWLAWYQQKSGNAPRLLISGGTSLETGVPSRFSGSGSGKDYTLSITSLQTEDVATYYCQQYWRTPFTFGSGTKLEIK
binds: [1] | [2]

B2: anti-idiotype antibody Clone 60 (IDA2002-1.60) (antibody, mouse IgG1, kappa, V domains shown)
VH: EVQLQQSGPELVKTGTSVKISCKASGYSITGYYIHWVKQSHGRSLDWIGSISFYNGATTYNQKFKGKVTFTVDTSSSTAYMQFNSLTSEDSAVYYCGRRGDDYDVFAYWGQGTLVTVSA
VL: DIVLTQSPASLAVSLGQRATISCRASESVDSYGYSFLHWYQQKPGQPPTLLIYRASNLESGIPARFSGSGSRTDFTLTINSVEADDVATYYCQQSNEDPWTFGGGTKLEIKR
binds: [3] | [1] | [4] | [5] | [6] | [7]

B3: 4F11 scFv 10xHis (scFv)
scFv: QVTLKESGPVLVKPTETLTLTCTVSGFSLSNARMGVTWIRQPPGKALEWLAHIFSNDEKSYSTSLKSRLTISKDTSKTQVVLTMTNMDPVDTATYYCARIRDYYDISSYYDYWGQGTLVSVSSGGGGSGGGGSGGGGSDIQMTQSPSAMSASVGDRVTITCRASQDISNYLAWFQQKPGKVPKRLIYAASSLQSGVPSRFSGSGSGTEFTLTISSLLPEDFATYYCLQLNSFPFTFGGGTKVEINGGSGHHHHHHHHHH
binds: Biotin-hCD70 (human) [8] | Biotin-hCD70 (human) [9] | Biotin-hCD70 (human) [10]
